Assay results from patent publication US20170088632A1.
These are yes or no findings as the source states them, for the method shown. Some entries that bind do so weakly or less than the wild type.

By UniProt entry, the sequences of proteins in these tests, tags left out. Where a name states a change or a piece, a line headed by the entry shows the natural chain unless it says otherwise.
UniProt O00187: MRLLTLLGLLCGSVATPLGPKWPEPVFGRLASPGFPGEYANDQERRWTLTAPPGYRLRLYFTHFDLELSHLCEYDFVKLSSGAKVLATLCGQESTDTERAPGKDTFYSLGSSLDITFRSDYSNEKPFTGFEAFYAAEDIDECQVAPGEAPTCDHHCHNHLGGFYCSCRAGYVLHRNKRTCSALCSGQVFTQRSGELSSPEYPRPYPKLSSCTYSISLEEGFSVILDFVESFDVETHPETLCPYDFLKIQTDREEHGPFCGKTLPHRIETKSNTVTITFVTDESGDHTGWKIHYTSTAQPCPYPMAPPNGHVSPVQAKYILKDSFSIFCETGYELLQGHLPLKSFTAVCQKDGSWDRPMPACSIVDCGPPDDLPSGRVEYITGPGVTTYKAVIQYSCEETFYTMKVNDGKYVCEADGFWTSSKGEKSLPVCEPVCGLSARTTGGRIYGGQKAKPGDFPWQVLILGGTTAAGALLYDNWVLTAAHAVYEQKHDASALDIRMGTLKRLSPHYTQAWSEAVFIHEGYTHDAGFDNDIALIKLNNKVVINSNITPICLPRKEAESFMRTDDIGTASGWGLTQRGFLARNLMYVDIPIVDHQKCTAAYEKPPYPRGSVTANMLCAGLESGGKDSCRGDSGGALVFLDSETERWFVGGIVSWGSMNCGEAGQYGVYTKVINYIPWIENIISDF
UniProt Q9JJS8: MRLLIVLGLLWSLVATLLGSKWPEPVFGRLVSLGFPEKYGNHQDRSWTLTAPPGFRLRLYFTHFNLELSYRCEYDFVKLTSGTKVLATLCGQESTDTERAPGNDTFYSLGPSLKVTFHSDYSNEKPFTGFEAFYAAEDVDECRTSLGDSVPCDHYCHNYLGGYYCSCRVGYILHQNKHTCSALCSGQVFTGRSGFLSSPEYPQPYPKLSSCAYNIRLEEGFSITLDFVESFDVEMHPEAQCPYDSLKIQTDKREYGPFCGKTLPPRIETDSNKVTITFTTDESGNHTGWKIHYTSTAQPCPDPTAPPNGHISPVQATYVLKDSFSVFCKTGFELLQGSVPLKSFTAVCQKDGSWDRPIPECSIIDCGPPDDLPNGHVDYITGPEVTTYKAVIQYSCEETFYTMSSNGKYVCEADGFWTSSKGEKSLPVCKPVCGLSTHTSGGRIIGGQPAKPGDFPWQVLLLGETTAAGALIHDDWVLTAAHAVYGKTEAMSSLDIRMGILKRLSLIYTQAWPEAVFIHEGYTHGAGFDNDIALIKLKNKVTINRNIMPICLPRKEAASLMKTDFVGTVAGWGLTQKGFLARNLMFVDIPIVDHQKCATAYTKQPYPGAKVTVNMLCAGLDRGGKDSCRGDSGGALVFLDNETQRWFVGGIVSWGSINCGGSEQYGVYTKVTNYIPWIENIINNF

How the values were obtained:
[1] = biological target: human MASP-2A (catalytically inactive human MASP-2, Ser618 to Ala618) (human) (UniProt O00187); test: ELISA on adsorbed MASP-2A
[2] = biological target: T1, rat MASP-2A (catalytically inactive rat MASP-2, Ser617 to Ala617) (rat) (UniProt Q9JJS8); test: ELISA on adsorbed rat MASP-2A
T1 sequence: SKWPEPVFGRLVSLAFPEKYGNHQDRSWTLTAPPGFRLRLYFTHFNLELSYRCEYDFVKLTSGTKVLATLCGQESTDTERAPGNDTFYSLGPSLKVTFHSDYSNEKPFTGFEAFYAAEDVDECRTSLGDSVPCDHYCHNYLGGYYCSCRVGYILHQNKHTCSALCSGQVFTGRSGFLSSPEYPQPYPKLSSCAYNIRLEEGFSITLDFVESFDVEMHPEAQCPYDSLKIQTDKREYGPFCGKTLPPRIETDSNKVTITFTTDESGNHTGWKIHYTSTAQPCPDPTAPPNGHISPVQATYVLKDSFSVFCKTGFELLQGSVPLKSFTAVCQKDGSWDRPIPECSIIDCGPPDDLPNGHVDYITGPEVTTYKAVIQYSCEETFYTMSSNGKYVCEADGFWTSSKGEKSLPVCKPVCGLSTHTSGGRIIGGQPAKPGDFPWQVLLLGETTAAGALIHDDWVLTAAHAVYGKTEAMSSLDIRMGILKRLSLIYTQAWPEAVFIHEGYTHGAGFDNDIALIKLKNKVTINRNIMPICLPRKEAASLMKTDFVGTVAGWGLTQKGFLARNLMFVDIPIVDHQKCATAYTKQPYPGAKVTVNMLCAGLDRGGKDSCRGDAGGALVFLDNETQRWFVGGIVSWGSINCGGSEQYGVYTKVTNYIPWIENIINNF

human MASP-2 (human) = human MASP-2 (human) (UniProt O00187); test: as told with Table 23 and FIGS. 11A and 11B

Binder	binding [2]	other results
scFv mother clone 3F22 (scFv) scFv: QVQLQQSGPGLVKPSQTLSLTCAISGDSVSSNSAAWNWIRQSPSRGLEWLGRTYYRSKWYNDYAVSVKSRITINPDTSKNQFSLQLNSVTPEDTAVYYCARDPFGVPFDIWGQGTMVTVSSKLSGSASAPKLEEGEFSEARVSYVLTQPPSVSVAPGQTARVTCGGNNIRSKNVHWYQQKPGQAPVLVVYDDTDRPSGIPERFSGSNSGNTATLTVSRVEAGDEADYYCQVWDTTTDHVVFGGGTKLTVLAAAGSEQKLISEEDLNSHHHHHH	–	binding [1]: binds
scFv mother clone 4D9 (scFv) scFv: QITLKESGPVLVKPTETLTLTCTVSGFSLSNARMGVSWIRQPPGKALEWLAHIFSNDEKSYSTSLKSRLTISKDTSKSQVVLTMTNMDPVDTATYYCARMRYSSSLYGMDVWGQGTRVTVSSKLSGSASAPKLEEGEFSEARVSYELIQPPSVSVSPGQTASITCSGDKLGDKYVSWYQQKPGRSPVLVIYRDTKRPSGIPERFSGSNSGNTATLTISGTQAMDEADYYCQAWDSSTVVFGGGTKLTVLAAAGSEQKLISEEDLNSHHHHHH	binds	–
scFv mother clone 17D20 (scFv) scFv: QVTLKESGPVLVKPTETLTLTCTVSGFSLSRGKMGVSWIRQPPGKALEWLAHIFSSDEKSYRTSLKSRLTISKDTSKNQVVLTMTNMDPVDTATYYCARIRAGGIDYWGQGTLVTVSSKLSGSASAPKLEEGEFSEARVQPVLTQPPSVSVSPGQTASITCSGDKLGDKFAYWYQQKPGHSPVLVIYQDNKRPSGIPGRFSGSNSGNTATLTISGTQAMDEADYYCQAWDSSTAVFGTGTKVTVLAAAGSEQKLISEEDLNSHHHHHH	binds	–
scFv mother clone 9P13 (scFv) scFv: QVQLQQSGPGLVKPSQTLSLTCAISGDSVSSNSAAWNWIRQSPSRGLEWLGRTYYRSKWYNDYAVSVKSRITINPDTSKNQFSLQLNSVTPEDTAVYYCARDPFGVPFDIWGQGTMVTVSSKLSGSASAPKLEEGEFSEARVSYELTQLPSVSVAPGQTARVTCGGNNIRSKNVHWYQQKPGQAPVLVVYDDTDRPSGIPERFSGSNSGNTATLTVSRVEAGDEADYYCQVWDTTTDHVVFGGGTKVTVLAAAGSEQKLISEEDLNSHHHHHH	binds	–
scFv mother clone 17N16 (scFv) scFv: QVQLQQSGPGLVKPSQTLSLTCAISGDSVSSTSAAWNWIRQSPSRGLEWLGRTYYRSKWYNDYAVSVKSRITINPDTSKNQFSLQLNSVTPEDTAVYYCARDPFGVPFDIWGQGTMVTVSSKLSGSASAPKLEEGEFSEARVSYVLTQPPSVSVAPGQTARITCGGNNIGSKNVHWYQQKPGQAPVLVVYDDSDRPSGIPERFSGSNSGNTATLTVSRVEAGDEADYYCQVWDTTTDHVVFGGGTKLTVLAAAGSEQKLISEEDLNSHHHHHH	binds	–
MoAb #1 (OMS641), 17N16m_d17N9 IgG2 (antibody) heavy: QVQLQQSGPGLVKPSQTLSLTCAISGDSVSSTSAAWNWIRQSPSRGLEWLGRTYYRSKWYNDYAVSVKSRITINPDTSKNQFSLQLNSVTPEDTAVYYCARDPFGVPFDIWGQGTMVTVSSASTKGPSVFPLAPCSRSTSESTAALGCLVKDYFPEPVTVSWNSGALTSGVHTFPAVLQSSGLYSLSSVVTVPSSNFGTQTYTCNVDHKPSNTKVDKTVERKCCVECPPCPAPPVAGPSVFLFPPKPKDTLMISRTPEVTCVVVDVSHEDPEVQFNWYVDGVEVHNAKTKPREEQFNSTFRVVSVLTVVHQDWLNGKEYKCKVSNKGLPAPIEKTISKTKGQPREPQVYTLPPSREEMTKNQVSLTCLVKGFYPSDIAVEWESNGQPENNYKTTPPMLDSDGSFFLYSKLTVDKSRWQQGNVFSCSVMHEALHNHYTQKSLSLSPGK light: SYELIQPPSVSVAPGQTATITCAGDNLGKKRVHWYQQRPGQAPVLVIYDDSDRPSGIPDRFSASNSGNTATLTITRGEAGDEADYYCQVWDIATDHVVFGGGTKLTVLGQPKAAPSVTLFPPSSEELQANKATLVCLISDFYPGAVTVAWKADSSPVKAGVETTTPSKQSNNKYAASSYLSLTPEQWKSHRSYSCQVTHEGSTVEKTVAPTECS	–	binding (human MASP-2 (human)): binds
